Experiment [1] concerns the target T1, V5-tagged mouse OASL1 (mouse) (UniProt Q8VI94).
T1 sequence: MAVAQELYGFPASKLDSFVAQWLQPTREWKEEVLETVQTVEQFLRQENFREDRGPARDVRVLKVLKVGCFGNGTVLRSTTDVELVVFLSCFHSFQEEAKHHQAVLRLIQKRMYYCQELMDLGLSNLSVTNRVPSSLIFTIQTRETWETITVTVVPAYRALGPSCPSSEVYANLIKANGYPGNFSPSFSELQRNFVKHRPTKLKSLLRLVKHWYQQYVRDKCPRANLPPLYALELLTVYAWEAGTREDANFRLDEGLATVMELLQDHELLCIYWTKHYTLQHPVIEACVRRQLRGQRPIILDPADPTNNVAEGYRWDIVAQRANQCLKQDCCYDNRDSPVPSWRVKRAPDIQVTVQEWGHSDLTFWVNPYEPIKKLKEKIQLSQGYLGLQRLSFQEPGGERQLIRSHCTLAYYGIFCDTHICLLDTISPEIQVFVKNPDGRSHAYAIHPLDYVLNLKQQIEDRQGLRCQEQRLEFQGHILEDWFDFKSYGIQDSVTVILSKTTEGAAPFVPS
Kind of experiment: co-IP.

Protein sequences, listed by entry. Tags and fused reporters are not part of them.
UniProt Q9QZL0: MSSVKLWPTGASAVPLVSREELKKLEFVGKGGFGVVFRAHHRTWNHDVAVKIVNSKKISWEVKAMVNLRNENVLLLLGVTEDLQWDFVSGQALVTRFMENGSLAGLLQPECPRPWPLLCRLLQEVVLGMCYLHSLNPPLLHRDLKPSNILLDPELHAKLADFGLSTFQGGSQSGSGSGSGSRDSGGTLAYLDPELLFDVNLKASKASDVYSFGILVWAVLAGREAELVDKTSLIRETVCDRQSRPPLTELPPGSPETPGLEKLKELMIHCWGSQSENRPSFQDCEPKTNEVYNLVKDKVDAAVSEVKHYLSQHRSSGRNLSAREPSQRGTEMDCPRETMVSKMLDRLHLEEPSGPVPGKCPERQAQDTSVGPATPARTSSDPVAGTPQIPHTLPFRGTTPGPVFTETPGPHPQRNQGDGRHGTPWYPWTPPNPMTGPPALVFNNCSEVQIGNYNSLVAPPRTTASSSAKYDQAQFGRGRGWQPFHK

The target of experiment [2] is T2, V5-tagged mouse OASL2 (mouse) (UniProt Q9Z2F2).
T2 sequence: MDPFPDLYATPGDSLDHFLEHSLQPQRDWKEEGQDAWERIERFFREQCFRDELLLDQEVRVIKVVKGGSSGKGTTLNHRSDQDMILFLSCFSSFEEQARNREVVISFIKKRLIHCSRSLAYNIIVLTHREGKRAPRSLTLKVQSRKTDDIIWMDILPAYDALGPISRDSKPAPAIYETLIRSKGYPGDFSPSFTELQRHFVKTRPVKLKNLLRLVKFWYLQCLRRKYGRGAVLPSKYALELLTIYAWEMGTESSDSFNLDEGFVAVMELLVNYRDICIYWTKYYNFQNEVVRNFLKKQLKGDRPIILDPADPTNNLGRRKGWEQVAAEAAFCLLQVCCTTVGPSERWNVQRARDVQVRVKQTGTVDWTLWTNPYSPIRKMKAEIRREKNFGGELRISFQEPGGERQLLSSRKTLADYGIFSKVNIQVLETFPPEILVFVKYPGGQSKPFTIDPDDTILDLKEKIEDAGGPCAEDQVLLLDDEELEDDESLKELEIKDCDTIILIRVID
In words: co-IP.

Here are results for one substance from publication PMC9859756.

Results are given in words; binding and its absence hold for the method and conditions named. In cells and extracts the contact can be indirect. Some results given as binding are weak or reduced against the parent protein; the word gives no strength. Where a sequence is shown, tags or fusion partners need not be part of it.

“HA-tagged full-length mouse RIPK3 (pcDNA3-HA-RIPK3) (from UniProt Q9QZL0 1-486)”: the binding result in experiment [1] is on record as “binds”; in experiment [2] it was “no binding”.
